This is one part of the list.
Assays:
Test in all cases: glycan array binding signal (z-score within array); higher = stronger binding
Details in all cases: glycan notation: IUPAC condensed, linker removed
[1] = target: Gal(b1-4)GalNAc(b1-3)[Fuc(a1-2)]Gal(b1-4)GlcNAc
Procedure, shortened: (§1)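 Glycan array data came from 3228 arrays in the Consortium for Functional Glycomics database, and only arrays with an available protein sequence were kept. Glycan names were put into IUPAC-condensed notation, and columns mapping to the same glycan were averaged. The binding signal is a within-array Z-score, averaged across arrays of one protein sequence run at different concentrations or buffers and across linkers. A negative Z-score can be read as non-binding.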

[2] = target: Gal(b1-4)Glc
Procedure, shortened: as §1

[3] = target: Gal(b1-4)Glc6S
Procedure, shortened: as §1

[4] = target: Gal(b1-4)GlcNAc
Procedure, shortened: as §1

[5] = target: Gal(b1-4)GlcNAc(a1-6)Gal(b1-4)GlcNAc
Procedure, shortened: as §1

[6] = target: Gal(b1-4)GlcNAc(b1-2)Man
Procedure, shortened: as §1

[7] = target: Gal(b1-4)GlcNAc(b1-2)Man(a1-3)Man(b1-4)GlcNAc(b1-4)GlcNAc
Procedure, shortened: as §1

[8] = target: Gal(b1-4)GlcNAc(b1-2)Man(a1-3)[Gal(b1-4)GlcNAc(b1-2)Man(a1-6)]Man(b1-4)GlcNAc(b1-4)GlcNAc
Procedure, shortened: as §1

[9] = target: Gal(b1-4)GlcNAc(b1-2)Man(a1-3)[Gal(b1-4)GlcNAc(b1-2)Man(a1-6)]Man(b1-4)GlcNAc(b1-4)[Fuc(a1-6)]GlcNAc
Procedure, shortened: as §1

[10] = target: Gal(b1-4)GlcNAc(b1-2)Man(a1-3)[Gal(b1-4)GlcNAc(b1-2)Man(a1-6)][Gal(b1-4)GlcNAc(b1-4)]Man(b1-4)GlcNAc(b1-4)[Fuc(a1-6)]GlcNAc
Procedure, shortened: as §1

[11] = target: Gal(b1-4)GlcNAc(b1-2)Man(a1-3)[Gal(b1-4)GlcNAc(b1-2)Man(a1-6)][GlcNAc(b1-4)]Man(b1-4)GlcNAc(b1-4)[Fuc(a1-6)]GlcNAc
Procedure, shortened: as §1

[12] = target: Gal(b1-4)GlcNAc(b1-2)Man(a1-3)[GlcNAc(b1-2)Man(a1-6)]Man(b1-4)GlcNAc(b1-4)GlcNAc
Procedure, shortened: as §1

[13] = target: Gal(b1-4)GlcNAc(b1-2)Man(a1-3)[GlcNAc(b1-4)][Gal(b1-4)GlcNAc(b1-2)Man(a1-6)]Man(b1-4)GlcNAc(b1-4)GlcNAc
Procedure, shortened: as §1

[14] = target: Gal(b1-4)GlcNAc(b1-2)Man(a1-3)[Man(a1-6)]Man(b1-4)GlcNAc(b1-4)GlcNAc
Procedure, shortened: as §1

[15] = target: Gal(b1-4)GlcNAc(b1-2)Man(a1-6)Man(b1-4)GlcNAc(b1-4)GlcNAc
Procedure, shortened: as §1

[16] = target: Gal(b1-4)GlcNAc(b1-2)Man(a1-6)[GlcNAc(b1-2)Man(a1-3)]Man(b1-4)GlcNAc(b1-4)GlcNAc
Procedure, shortened: as §1

[17] = target: Gal(b1-4)GlcNAc(b1-2)Man(a1-6)[Man(a1-3)]Man(b1-4)GlcNAc(b1-4)GlcNAc
Procedure, shortened: as §1

[18] = target: Gal(b1-4)GlcNAc(b1-2)[Gal(b1-4)GlcNAc(b1-4)]Man(a1-3)[Gal(b1-4)GlcNAc(b1-2)Man(a1-6)]Man(b1-4)GlcNAc(b1-4)GlcNAc
Procedure, shortened: as §1

[19] = target: Gal(b1-4)GlcNAc(b1-2)[Gal(b1-4)GlcNAc(b1-4)]Man(a1-3)[Gal(b1-4)GlcNAc(b1-2)[Gal(b1-4)GlcNAc(b1-6)]Man(a1-6)]Man(b1-4)GlcNAc(b1-4)GlcNAc
Procedure, shortened: as §1

[20] = target: Gal(b1-4)GlcNAc(b1-2)[Gal(b1-4)GlcNAc(b1-4)]Man(a1-3)[GlcNAc(b1-4)][Gal(b1-4)GlcNAc(b1-2)Man(a1-6)]Man(b1-4)GlcNAc(b1-4)GlcNAc
Procedure, shortened: as §1

[21] = target: Gal(b1-4)GlcNAc(b1-2)[Gal(b1-4)GlcNAc(b1-4)]Man(a1-3)[GlcNAc(b1-4)][Gal(b1-4)GlcNAc(b1-2)[Gal(b1-4)GlcNAc(b1-6)]Man(a1-6)]Man(b1-4)GlcNAc(b1-4)GlcNAc
Procedure, shortened: as §1

[22] = target: Gal(b1-4)GlcNAc(b1-2)[Gal(b1-4)GlcNAc(b1-6)]Man(a1-6)[Gal(b1-4)GlcNAc(b1-2)Man(a1-3)]Man(b1-4)GlcNAc(b1-4)GlcNAc
Procedure, shortened: as §1

B1: AT5G24760(45) (Arabidopsis thaliana), Q8LEB2 (protein)
chain: MSASSSSFEQPQVITCNAAVAWRAGEPLVMEEVEVSPPQPLEIRIKVVCTSLCRSDLSAWESQSLLPRIFGHEAAGIVESIGEGVTEFEKGDHVLAVFTGECGSCRHCISGKSNMCQVLGMERKGLMHSDQKTRFSIKGKPVYHYCAVSSFSEYTVVHSGCAVKVDPLAPLHKICLLSCGVAAGLGAAWNVADVQKGSSVVIFGLGTVGLSVAQGAKLRGAAQILGVDINPAKAEQAKTFGVTDFINSNDLSEPIPQVIKRMTGGGADFSFECVGDTGIATTALQSCSDGWGMTVTLGVPKAKPEVSAHYGLFLSGKSLKGTLFGGWKPKSDLPSLIDKYMNKEIMIDEFITHNLSFDEINKAFVLMREGKCLRCVLHMPK
[1]
  glycan array binding signal (z-score): -0.802
[2]
  glycan array binding signal (z-score): 0.137
[3]
  glycan array binding signal (z-score): 0.58
[4]
  glycan array binding signal (z-score): 0.653
[5]
  glycan array binding signal (z-score): 0.594
[6]
  glycan array binding signal (z-score): -0.232
[7]
  glycan array binding signal (z-score): -0.219
[8]
  glycan array binding signal (z-score): -0.691
[9]
  glycan array binding signal (z-score): 1.1
[10]
  glycan array binding signal (z-score): 0.369
[11]
  glycan array binding signal (z-score): -0.661
[12]
  glycan array binding signal (z-score): -0.618
[13]
  glycan array binding signal (z-score): -0.515
[14]
  glycan array binding signal (z-score): -0.522
[15]
  glycan array binding signal (z-score): -0.932
[16]
  glycan array binding signal (z-score): -0.565
[17]
  glycan array binding signal (z-score): -0.485
[18]
  glycan array binding signal (z-score): 0.247
[19]
  glycan array binding signal (z-score): -0.969
[20]
  glycan array binding signal (z-score): -0.721
[21]
  glycan array binding signal (z-score): 0.214
[22]
  glycan array binding signal (z-score): -0.77
